From the supplement of paper PMC11006884
The targets with a hit were mostly taken out for another list; the other results follow. The data scatter; read single values as rough. Only a part is listed here, and it is no random draw.

Amino acid sequences for entries named in this document (tags omitted). A change or cut given only in a name is not applied to a line headed by its entry.
UniProt P29401: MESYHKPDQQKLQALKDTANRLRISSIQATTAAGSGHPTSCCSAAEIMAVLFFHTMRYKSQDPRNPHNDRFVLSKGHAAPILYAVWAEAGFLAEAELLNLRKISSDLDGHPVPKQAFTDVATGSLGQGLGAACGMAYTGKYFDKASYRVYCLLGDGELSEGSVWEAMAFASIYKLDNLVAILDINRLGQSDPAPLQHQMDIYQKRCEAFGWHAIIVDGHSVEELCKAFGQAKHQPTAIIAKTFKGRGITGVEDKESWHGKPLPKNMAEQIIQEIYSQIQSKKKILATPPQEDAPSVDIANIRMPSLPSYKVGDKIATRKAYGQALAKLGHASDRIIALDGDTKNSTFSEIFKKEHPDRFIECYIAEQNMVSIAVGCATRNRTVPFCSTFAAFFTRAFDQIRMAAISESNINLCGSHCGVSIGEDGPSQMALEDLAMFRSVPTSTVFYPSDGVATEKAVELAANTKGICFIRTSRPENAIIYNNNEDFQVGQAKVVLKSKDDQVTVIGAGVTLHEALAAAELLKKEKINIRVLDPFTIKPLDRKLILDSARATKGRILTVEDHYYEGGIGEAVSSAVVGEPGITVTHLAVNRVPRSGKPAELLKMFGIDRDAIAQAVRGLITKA
UniProt P23528, whole entry, looked up: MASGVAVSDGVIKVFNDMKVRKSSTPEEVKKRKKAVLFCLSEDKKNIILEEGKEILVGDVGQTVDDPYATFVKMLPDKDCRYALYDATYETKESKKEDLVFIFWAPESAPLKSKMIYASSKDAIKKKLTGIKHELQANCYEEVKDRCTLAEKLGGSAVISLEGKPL
UniProt P17987, whole entry, looked up: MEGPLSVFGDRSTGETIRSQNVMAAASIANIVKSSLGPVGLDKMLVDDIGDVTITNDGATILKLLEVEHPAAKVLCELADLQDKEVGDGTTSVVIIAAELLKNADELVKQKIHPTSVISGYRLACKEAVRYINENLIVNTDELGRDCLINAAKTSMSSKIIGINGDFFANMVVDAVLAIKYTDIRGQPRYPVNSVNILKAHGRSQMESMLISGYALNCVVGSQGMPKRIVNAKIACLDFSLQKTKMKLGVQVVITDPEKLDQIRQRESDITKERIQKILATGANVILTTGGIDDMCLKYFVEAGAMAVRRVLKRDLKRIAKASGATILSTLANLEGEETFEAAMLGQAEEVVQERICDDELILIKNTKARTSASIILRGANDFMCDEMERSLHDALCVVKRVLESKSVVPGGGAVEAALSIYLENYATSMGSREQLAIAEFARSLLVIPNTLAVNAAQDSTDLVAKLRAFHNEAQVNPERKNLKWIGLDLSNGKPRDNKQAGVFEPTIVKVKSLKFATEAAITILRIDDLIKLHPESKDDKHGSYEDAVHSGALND
UniProt P28482, whole entry, looked up: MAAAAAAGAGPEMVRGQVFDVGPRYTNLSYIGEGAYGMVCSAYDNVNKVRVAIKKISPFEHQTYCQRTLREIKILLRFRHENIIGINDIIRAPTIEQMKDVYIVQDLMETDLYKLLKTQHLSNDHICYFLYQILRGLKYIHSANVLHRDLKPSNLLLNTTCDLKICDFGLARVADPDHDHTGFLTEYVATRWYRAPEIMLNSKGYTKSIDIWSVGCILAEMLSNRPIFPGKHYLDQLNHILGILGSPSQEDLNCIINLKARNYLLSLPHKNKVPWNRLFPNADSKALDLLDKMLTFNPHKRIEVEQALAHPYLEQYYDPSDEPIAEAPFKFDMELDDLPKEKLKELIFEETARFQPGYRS
UniProt P28066: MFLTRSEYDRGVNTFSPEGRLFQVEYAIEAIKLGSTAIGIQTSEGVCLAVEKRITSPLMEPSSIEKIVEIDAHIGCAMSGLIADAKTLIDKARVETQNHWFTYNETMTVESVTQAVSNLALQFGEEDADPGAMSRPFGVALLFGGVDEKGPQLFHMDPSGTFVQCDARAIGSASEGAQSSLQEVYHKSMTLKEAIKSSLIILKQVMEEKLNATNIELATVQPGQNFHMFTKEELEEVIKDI
UniProt P28288: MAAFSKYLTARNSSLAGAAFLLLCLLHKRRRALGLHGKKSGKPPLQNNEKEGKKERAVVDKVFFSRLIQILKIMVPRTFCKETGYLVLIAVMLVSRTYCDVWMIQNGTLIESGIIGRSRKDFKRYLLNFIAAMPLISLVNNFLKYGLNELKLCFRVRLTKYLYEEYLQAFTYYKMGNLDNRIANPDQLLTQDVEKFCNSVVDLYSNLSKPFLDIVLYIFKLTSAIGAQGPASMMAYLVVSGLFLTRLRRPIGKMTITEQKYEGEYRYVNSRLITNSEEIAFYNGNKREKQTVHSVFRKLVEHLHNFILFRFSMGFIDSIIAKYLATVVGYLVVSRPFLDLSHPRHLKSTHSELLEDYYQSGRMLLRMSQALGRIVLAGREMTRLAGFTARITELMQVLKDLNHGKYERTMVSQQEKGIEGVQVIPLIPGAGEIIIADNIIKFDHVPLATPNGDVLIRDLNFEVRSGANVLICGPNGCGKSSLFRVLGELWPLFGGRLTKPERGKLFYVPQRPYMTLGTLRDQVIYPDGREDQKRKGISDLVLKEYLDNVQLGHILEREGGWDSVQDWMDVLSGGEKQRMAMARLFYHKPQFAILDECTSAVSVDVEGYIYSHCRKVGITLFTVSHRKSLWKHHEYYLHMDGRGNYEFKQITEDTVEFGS
UniProt P22626: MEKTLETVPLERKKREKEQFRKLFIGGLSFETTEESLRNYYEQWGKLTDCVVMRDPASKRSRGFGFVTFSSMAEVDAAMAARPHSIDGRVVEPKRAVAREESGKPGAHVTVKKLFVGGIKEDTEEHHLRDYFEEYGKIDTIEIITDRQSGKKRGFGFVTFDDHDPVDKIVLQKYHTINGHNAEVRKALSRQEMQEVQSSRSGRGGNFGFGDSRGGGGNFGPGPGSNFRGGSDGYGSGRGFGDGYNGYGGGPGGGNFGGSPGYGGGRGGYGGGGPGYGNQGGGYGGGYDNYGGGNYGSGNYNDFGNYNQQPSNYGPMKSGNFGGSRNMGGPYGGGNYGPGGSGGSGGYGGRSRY
UniProt P27448: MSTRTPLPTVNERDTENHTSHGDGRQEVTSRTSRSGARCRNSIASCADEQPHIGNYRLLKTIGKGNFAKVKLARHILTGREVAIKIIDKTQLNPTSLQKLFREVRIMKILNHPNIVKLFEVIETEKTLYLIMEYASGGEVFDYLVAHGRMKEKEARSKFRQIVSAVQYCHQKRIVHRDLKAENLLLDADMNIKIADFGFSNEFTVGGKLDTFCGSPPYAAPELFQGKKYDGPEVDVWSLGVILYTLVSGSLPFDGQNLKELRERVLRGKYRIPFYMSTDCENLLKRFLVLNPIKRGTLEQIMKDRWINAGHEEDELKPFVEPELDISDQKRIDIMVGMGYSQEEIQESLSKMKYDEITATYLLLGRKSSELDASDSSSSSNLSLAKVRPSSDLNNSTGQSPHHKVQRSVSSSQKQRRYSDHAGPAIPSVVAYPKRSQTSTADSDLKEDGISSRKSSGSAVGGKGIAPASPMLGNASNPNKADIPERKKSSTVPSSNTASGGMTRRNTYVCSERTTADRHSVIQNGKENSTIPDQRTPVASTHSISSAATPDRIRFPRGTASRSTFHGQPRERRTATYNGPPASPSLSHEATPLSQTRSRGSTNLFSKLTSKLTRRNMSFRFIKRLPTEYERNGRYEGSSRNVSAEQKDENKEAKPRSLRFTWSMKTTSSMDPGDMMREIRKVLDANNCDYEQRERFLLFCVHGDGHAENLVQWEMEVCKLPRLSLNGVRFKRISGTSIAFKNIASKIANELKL
UniProt P29590: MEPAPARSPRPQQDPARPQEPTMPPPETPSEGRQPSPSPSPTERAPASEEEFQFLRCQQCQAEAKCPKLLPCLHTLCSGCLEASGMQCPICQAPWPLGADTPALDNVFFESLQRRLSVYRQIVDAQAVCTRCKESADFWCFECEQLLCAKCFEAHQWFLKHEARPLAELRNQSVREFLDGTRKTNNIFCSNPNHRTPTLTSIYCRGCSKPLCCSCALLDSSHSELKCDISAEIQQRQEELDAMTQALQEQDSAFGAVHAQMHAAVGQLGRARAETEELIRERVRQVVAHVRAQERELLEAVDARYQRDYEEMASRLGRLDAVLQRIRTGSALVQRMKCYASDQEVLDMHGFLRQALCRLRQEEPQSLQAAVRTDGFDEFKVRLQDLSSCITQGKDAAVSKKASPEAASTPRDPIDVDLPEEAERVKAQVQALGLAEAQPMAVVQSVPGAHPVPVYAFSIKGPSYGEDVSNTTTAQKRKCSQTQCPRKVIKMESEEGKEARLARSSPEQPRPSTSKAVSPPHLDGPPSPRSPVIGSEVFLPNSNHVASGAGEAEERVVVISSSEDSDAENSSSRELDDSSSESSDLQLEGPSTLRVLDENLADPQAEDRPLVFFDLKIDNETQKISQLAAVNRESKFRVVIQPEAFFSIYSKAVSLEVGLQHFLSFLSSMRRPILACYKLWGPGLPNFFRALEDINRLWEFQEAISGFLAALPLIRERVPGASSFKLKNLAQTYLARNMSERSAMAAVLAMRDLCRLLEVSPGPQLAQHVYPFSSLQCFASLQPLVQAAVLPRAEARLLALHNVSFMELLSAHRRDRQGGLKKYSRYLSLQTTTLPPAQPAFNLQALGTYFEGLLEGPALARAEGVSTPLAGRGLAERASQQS
UniProt P19404, whole entry: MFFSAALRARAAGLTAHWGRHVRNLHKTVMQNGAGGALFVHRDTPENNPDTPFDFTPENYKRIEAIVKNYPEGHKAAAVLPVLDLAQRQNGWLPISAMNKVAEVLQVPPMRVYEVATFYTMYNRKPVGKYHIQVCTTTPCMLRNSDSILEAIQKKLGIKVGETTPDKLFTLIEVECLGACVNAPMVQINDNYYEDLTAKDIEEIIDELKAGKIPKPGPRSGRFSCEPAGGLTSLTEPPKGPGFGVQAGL
UniProt P26599: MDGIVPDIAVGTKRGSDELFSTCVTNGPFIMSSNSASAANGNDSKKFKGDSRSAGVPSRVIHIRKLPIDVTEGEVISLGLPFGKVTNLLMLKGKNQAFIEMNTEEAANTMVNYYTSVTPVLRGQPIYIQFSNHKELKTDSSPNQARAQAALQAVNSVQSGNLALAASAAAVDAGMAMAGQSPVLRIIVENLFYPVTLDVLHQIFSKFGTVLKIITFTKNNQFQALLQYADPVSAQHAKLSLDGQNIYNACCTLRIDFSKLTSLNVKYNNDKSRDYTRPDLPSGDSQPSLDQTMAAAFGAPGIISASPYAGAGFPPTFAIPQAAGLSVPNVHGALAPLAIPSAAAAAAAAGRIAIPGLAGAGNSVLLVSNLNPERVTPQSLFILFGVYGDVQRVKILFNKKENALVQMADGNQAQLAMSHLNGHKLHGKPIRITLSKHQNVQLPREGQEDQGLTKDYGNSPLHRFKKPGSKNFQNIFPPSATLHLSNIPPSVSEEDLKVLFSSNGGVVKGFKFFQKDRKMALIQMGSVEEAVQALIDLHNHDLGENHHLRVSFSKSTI
UniProt P28838: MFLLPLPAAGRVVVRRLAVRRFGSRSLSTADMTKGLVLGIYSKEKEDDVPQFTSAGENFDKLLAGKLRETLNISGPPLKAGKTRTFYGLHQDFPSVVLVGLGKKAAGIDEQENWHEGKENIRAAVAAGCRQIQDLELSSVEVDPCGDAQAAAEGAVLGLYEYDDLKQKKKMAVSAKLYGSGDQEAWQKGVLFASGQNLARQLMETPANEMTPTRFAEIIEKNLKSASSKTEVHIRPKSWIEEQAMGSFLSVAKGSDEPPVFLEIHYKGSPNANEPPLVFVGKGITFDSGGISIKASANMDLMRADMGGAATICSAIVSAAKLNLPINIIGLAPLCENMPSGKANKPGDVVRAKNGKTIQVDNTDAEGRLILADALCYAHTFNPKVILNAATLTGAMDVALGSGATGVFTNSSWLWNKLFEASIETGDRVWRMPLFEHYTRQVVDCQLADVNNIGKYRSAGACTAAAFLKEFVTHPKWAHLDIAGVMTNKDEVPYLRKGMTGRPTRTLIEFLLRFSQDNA
UniProt P18887, whole entry: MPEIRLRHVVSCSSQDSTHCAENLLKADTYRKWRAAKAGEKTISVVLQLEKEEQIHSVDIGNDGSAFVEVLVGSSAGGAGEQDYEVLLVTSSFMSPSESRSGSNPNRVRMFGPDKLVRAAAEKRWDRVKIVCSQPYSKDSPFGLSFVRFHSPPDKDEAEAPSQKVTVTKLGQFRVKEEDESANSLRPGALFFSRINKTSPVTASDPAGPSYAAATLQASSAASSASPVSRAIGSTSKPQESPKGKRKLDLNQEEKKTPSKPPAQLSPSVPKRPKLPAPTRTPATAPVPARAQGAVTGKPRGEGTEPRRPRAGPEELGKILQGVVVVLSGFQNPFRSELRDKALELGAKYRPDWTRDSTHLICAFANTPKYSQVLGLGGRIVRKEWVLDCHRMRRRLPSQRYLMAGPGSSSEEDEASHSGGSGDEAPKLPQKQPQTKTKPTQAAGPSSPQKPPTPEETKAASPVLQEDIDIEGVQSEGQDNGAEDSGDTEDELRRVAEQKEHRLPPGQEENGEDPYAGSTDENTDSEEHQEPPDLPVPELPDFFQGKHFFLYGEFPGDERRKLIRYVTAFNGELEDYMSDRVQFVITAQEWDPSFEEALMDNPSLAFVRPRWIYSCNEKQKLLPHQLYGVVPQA

Compound: COC(=O)/C=C/c1ccccc1 [methyl cinnamate]
Experiment: log2 ratio of iodoacetamide-alkyne labeling of the cysteine site, DMSO over compound (competition); higher = stronger covalent engagement of the cysteine by the compound, active = 1 or more
Conditions: 500 µM; treatment time 1 h; system: HEK293T cell lysate
Summary of the method: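 The log2 competition ratio per cysteine is defined as mean reporter intensity in control channels over mean reporter intensity in compound channels. Lysate from HEK293T cells (2 mg/mL) received electrophile (500 µM) or vehicle for 1 h at ambient temperature, followed by iodoacetamide alkyne for 1 h. Samples were clicked to sCIP-TMT reagents, pooled, trypsin-digested overnight at 37 °C, streptavidin-enriched, acid-eluted and run on Orbitrap Eclipse LC-MS/MS with FAIMS, with quantification in FragPipe. Three replicates with duplicate channels were used, and any cysteine quantified in only one replicate was excluded.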

log2 ratio of iodoacetamide-alkyne labeling, inactive:
TKT C206 (UniProt P29401) -0.182
TEAD1 C53 (UniProt P28347) 0.0297
PAICS C63 (UniProt P22234) -0.129
CFL1 C147 (UniProt P23528) 0.116
TCP1 C397 (UniProt P17987) -0.0197
UniProt P28482_C161 -0.0862
UniProt P25398_C92 0.218
UniProt P20719_C233 0.0491
TCP1 C218 (UniProt P17987) -0.342
UniProt P28066_C76 -0.0805
ABCD3 C477 (UniProt P28288) 0.186
HNRNPA2B1 C50 (UniProt P22626) 0.169
POLD1 C837 (UniProt P28340) 0.278
APEX1 C99 (UniProt P27695) -0.039
UniProt P28290_C448 0.0774
DCK C45 (UniProt P27707) 0.548
ECHS1 C111 (UniProt P30084) 0.2
RPL17 C15 (UniProt P18621) 0.161
UniProt P27448_C46 0.149
TCP1 C236 (UniProt P17987) 0.216
PML C227 (UniProt P29590) 0.159
UniProt P26367_C94 0.142
NDUFV2 C225 (UniProt P19404) 0.00595
PTBP1 C251 (UniProt P26599) 0.123
CAST C328 (UniProt P20810) 0.3
LAP3 C462 (UniProt P28838) -0.262
TCP1 C296 (UniProt P17987) -0.177
PML C389 (UniProt P29590) 0.35
UniProt P25398_C69 0.0223
XRCC1 C362 (UniProt P18887) 0.0239
RPL12 C141 (UniProt P30050) 0.0667
RPL17 C144 (UniProt P18621) 0.0747
APEX1 C65 (UniProt P27695) 0.236
APC C2664 (UniProt P25054) 0.177
PML C57 (UniProt P29590) 0.173
ATP6V1B2 C207 (UniProt P21281) 0.14
CAD C252 (UniProt P27708) -0.248
TKT C42 (UniProt P29401) -0.141

Two successive entries from above:
log2 ratio of iodoacetamide-alkyne labeling, inactive:
LAP3 C462 (UniProt P28838) -0.262
TCP1 C296 (UniProt P17987) -0.177
